Laboratory results: PubChem BioAssay AID1224826 (NIAID, 2016)
Test: 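Knock-downs that raise or lower Tnf reporter signal after endotoxin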 (primary screen). Cell system: RAW264.7 G9 macrophages from mouse bearing reporters for p65 (GFP) and the Tnf promoter (mCherry). Reagent: siRNA pool against mouse genes, 100 nM. Duration: 16 h of LPS stimulation, after 2 days of siRNA transfection. Conditions: bacterial lipopolysaccharide (Salmonella minnesota R595), 10 ng/ml. Measured: 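Imaged Tnf reporter mCherry in nuclei, minus background, normalised per plate to the median and expressed as robust z-scores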. Direction: Tnf reporter robust z-score: higher = stronger Tnf promoter reporter signal after LPS; Tnf reporter intensity: higher = stronger Tnf promoter reporter signal. Hit rule: 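Called active when robust z-score is at most -1.3, matching the median of the Tlr4 knock-down control, or over 3; control wells and wells with under 50 cells never active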. Meaning of the calls: active = Tnf reporter clearly lowered or raised; inactive = no clear change in Tnf reporter.
This is one part, drawn at random, of about 17,000 deposited reagents. About 1,110 of them (6.6%) were called active. 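Active means lowered or raised reporter signal; replicate intensities are raw and not normalised per plate.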

| target | Tnf reporter robust z-score | fewer than 50 cells in well | Tnf reporter intensity, replicate 1 | Tnf reporter intensity, replicate 2 | Call |
| --- | --- | --- | --- | --- | --- |
| Casp1 | -0.5 | enough cells in well | 122 | 133 | inactive |
| Cfap68 | 0.66 | enough cells in well | 404 | 71.4 | inactive |
| Ddx39a | 0.65 | enough cells in well | 218 | 206 | inactive |
| Zfp710 | -0.75 | enough cells in well | 132 | 53.7 | inactive |
| 2410137M14Rik | 1.29 | enough cells in well | 313 | 103 | inactive |
| Pou3f4 | -0.91 | enough cells in well | 189 | 116 | inactive |
| Or13j1 | – | fewer than 50 cells per well; well left out of calls | 68.7 | 96.9 | inactive |
| Hmgn2 | -0.17 | enough cells in well | 216 | 185 | inactive |
| Rorb | 0.01 | enough cells in well | 324 | 196 | inactive |
| Rps14 | -0.53 | enough cells in well | 93.9 | 116 | inactive |
| Jade1 | 0.98 | enough cells in well | 207 | 166 | inactive |
| Foxc1 | -0.52 | enough cells in well | 234 | 174 | inactive |
| Dcbld1 | 1.78 | enough cells in well | 298 | 260 | inactive |
| Wdr25 | -0.09 | enough cells in well | 240 | 156 | inactive |
| Fam98a | 0.69 | enough cells in well | 201 | 120 | inactive |
| Cabp7 | -0.78 | enough cells in well | 88.4 | 175 | inactive |

Ordered by “Tnf reporter intensity, replicate 2” (low to high): some entries from above
| target | Tnf reporter robust z-score | fewer than 50 cells in well | Tnf reporter intensity, replicate 1 | Tnf reporter intensity, replicate 2 | Call |
| --- | --- | --- | --- | --- | --- |
| Or13j1 | – | fewer than 50 cells per well; well left out of calls | 68.7 | 96.9 | inactive |
| 2410137M14Rik | 1.29 | enough cells in well | 313 | 103 | inactive |
| Pou3f4 | -0.91 | enough cells in well | 189 | 116 | inactive |
| Hmgn2 | -0.17 | enough cells in well | 216 | 185 | inactive |

The results go on.
| target | Tnf reporter robust z-score | fewer than 50 cells in well | Tnf reporter intensity, replicate 1 | Tnf reporter intensity, replicate 2 | Call |
| --- | --- | --- | --- | --- | --- |
| Usp9x | 0.72 | enough cells in well | 258 | 319 | inactive |
| Suz12 | -0.77 | enough cells in well | 187 | 151 | inactive |
| Snu13 | – | fewer than 50 cells per well; well left out of calls | 103 | 63.5 | inactive |
| Miox | -0.02 | enough cells in well | 127 | 172 | inactive |
| Nup133 | -0.99 | enough cells in well | 135 | 92.2 | inactive |
| Hpd | -0.76 | enough cells in well | 163 | 152 | inactive |
| Nell2 | -0.77 | enough cells in well | 163 | 72 | inactive |
| Mageb1 | 1.19 | enough cells in well | 283 | 191 | inactive |
